{"source": "PubChem BioAssay AID504804 | Drosophila RNAi Screening Center, 2011", "purpose": "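Knock-downs shielding fly cells from apoptosis caused by DNA damage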 (primary screen)", "cell system": "Drosophila Kc cells", "reagents": "long dsRNA against Drosophila genes, 0.5 µg dsRNA per well", "time to read-out": "96 h (48 h knock-down, then 48 h drug)", "challenge": "doxorubicin 5 µg/ml for 48 h, added 48 h after dsRNA", "read-out": "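Viability measured as cellular ATP by luminescence after 48 h knock-down then 48 h doxorubicin at 5 µg/ml; unnormalised plate counts for each replicate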", "reading the numbers": "raw ATP luminescence: higher = more viable cells, protection from doxorubicin", "rule for the call": "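z-score of 2 or more over plate mean in both duplicates, retained only when retests and separate dsRNAs confirm the protection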", "note": "The screen tested about 19,000 reagents; shown is a random part of those with a known target gene and a result. Over the whole deposit, 47 (0.25%) got an active call. 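Signals are raw, not normalised; exact z-scores behind calls not deposited; actives needed confirmation, so some wells reaching 2 SD are inactive.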 Reagents against one gene are numbered here. Names joined by + are all predicted targets of the reagent. Reagent sequences are not shown."}
{"target gene": "CG12128 + CG1407", "reagent": 1, "raw ATP luminescence, replicate 1": 62597, "raw ATP luminescence, replicate 2": 49853, "outcome": "inactive"}
{"target gene": "Tbcc (Tubulin-binding cofactor C)", "reagent": 1, "raw ATP luminescence, replicate 1": 3.05e5, "raw ATP luminescence, replicate 2": 2.70e5, "outcome": "inactive"}
{"target gene": "CG13989", "reagent": 1, "raw ATP luminescence, replicate 1": 22287, "raw ATP luminescence, replicate 2": 30670, "outcome": "inactive"}
{"target gene": "stops (slow termination of phototransduction)", "reagent": 1, "raw ATP luminescence, replicate 1": 46830, "raw ATP luminescence, replicate 2": 43340, "outcome": "inactive"}
{"target gene": "stops (slow termination of phototransduction)", "reagent": 2, "raw ATP luminescence, replicate 1": 55620, "raw ATP luminescence, replicate 2": 43000, "outcome": "inactive"}
{"target gene": "stops (slow termination of phototransduction)", "reagent": 3, "raw ATP luminescence, replicate 1": 47660, "raw ATP luminescence, replicate 2": 46750, "outcome": "inactive"}
{"target gene": "Ir94f (Ionotropic receptor 94f)", "reagent": 1, "raw ATP luminescence, replicate 1": 2.08e5, "raw ATP luminescence, replicate 2": 1.81e5, "outcome": "inactive"}
{"target gene": "Nt5c (5' nucleotidase C)", "reagent": 1, "raw ATP luminescence, replicate 1": 90840, "raw ATP luminescence, replicate 2": 69550, "outcome": "inactive"}
{"target gene": "CG34040", "reagent": 1, "raw ATP luminescence, replicate 1": 53927, "raw ATP luminescence, replicate 2": 55663, "outcome": "inactive"}
{"target gene": "CG14453", "reagent": 1, "raw ATP luminescence, replicate 1": 53667, "raw ATP luminescence, replicate 2": 56630, "outcome": "inactive"}
{"target gene": "Nep1 (Neprilysin 1)", "reagent": 1, "raw ATP luminescence, replicate 1": 15290, "raw ATP luminescence, replicate 2": 17590, "outcome": "inactive"}
{"target gene": "CG6236", "reagent": 1, "raw ATP luminescence, replicate 1": 46403, "raw ATP luminescence, replicate 2": 22657, "outcome": "inactive"}
{"target gene": "CG15745 (retired record)", "reagent": 1, "raw ATP luminescence, replicate 1": 3.41e5, "raw ATP luminescence, replicate 2": 3.53e5, "outcome": "inactive"}
{"target gene": "CG11560", "reagent": 1, "raw ATP luminescence, replicate 1": 28327, "raw ATP luminescence, replicate 2": 37213, "outcome": "inactive"}
{"target gene": "CG4360", "reagent": 1, "raw ATP luminescence, replicate 1": 46870, "raw ATP luminescence, replicate 2": 48530, "outcome": "inactive"}
{"target gene": "r2d2", "reagent": 1, "raw ATP luminescence, replicate 1": 44250, "raw ATP luminescence, replicate 2": 64757, "outcome": "inactive"}
{"target gene": "CG17272", "reagent": 1, "raw ATP luminescence, replicate 1": 65750, "raw ATP luminescence, replicate 2": 71520, "outcome": "inactive"}

Part of the list above, set out differently.
target gene,reagent,"raw ATP luminescence, replicate 1","raw ATP luminescence, replicate 2",outcome
stops (slow termination of phototransduction),3,47660,46750,inactive
Ir94f (Ionotropic receptor 94f),1,2.08e5,1.81e5,inactive
Nt5c (5' nucleotidase C),1,90840,69550,inactive
CG34040,1,53927,55663,inactive

The listing continues.
{"target gene": "CG4950", "reagent": 1, "raw ATP luminescence, replicate 1": 70253, "raw ATP luminescence, replicate 2": 68187, "outcome": "inactive"}
{"target gene": "Lcp65Ag3 + Lcp65Ag2 + Lcp65Ag1", "reagent": 1, "raw ATP luminescence, replicate 1": 76987, "raw ATP luminescence, replicate 2": 86760, "outcome": "inactive"}
{"target gene": "Lcp65Ag3 + Lcp65Ag2 + Lcp65Ag1", "reagent": 2, "raw ATP luminescence, replicate 1": 83607, "raw ATP luminescence, replicate 2": 1.17e5, "outcome": "inactive"}
{"target gene": "Nuak (Nuak family kinase)", "reagent": 1, "raw ATP luminescence, replicate 1": 49883, "raw ATP luminescence, replicate 2": 56377, "outcome": "inactive"}
{"target gene": "Nuak (Nuak family kinase)", "reagent": 2, "raw ATP luminescence, replicate 1": 52203, "raw ATP luminescence, replicate 2": 20503, "outcome": "inactive"}
{"target gene": "Nuak (Nuak family kinase)", "reagent": 3, "raw ATP luminescence, replicate 1": 53967, "raw ATP luminescence, replicate 2": 70323, "outcome": "inactive"}
{"target gene": "CG10195", "reagent": 1, "raw ATP luminescence, replicate 1": 51323, "raw ATP luminescence, replicate 2": 51723, "outcome": "inactive"}
{"target gene": "lola (longitudinals lacking)", "reagent": 1, "raw ATP luminescence, replicate 1": 41550, "raw ATP luminescence, replicate 2": 51630, "outcome": "inactive"}
{"target gene": "lola (longitudinals lacking)", "reagent": 2, "raw ATP luminescence, replicate 1": 74920, "raw ATP luminescence, replicate 2": 1.08e5, "outcome": "inactive"}
{"target gene": "lola (longitudinals lacking)", "reagent": 3, "raw ATP luminescence, replicate 1": 71777, "raw ATP luminescence, replicate 2": 98777, "outcome": "inactive"}
{"target gene": "lola (longitudinals lacking)", "reagent": 4, "raw ATP luminescence, replicate 1": 48760, "raw ATP luminescence, replicate 2": 49060, "outcome": "inactive"}
{"target gene": "lola (longitudinals lacking)", "reagent": 5, "raw ATP luminescence, replicate 1": 1.08e5, "raw ATP luminescence, replicate 2": 1.20e5, "outcome": "inactive"}
{"target gene": "lola (longitudinals lacking)", "reagent": 6, "raw ATP luminescence, replicate 1": 55303, "raw ATP luminescence, replicate 2": 50337, "outcome": "inactive"}
{"target gene": "lola (longitudinals lacking)", "reagent": 7, "raw ATP luminescence, replicate 1": 35093, "raw ATP luminescence, replicate 2": 62943, "outcome": "inactive"}
{"target gene": "lola (longitudinals lacking)", "reagent": 8, "raw ATP luminescence, replicate 1": 54363, "raw ATP luminescence, replicate 2": 58400, "outcome": "inactive"}
{"target gene": "lola (longitudinals lacking)", "reagent": 9, "raw ATP luminescence, replicate 1": 55250, "raw ATP luminescence, replicate 2": 1.08e5, "outcome": "inactive"}
{"target gene": "lola (longitudinals lacking)", "reagent": 10, "raw ATP luminescence, replicate 1": 18177, "raw ATP luminescence, replicate 2": 23217, "outcome": "inactive"}
{"target gene": "lola (longitudinals lacking)", "reagent": 11, "raw ATP luminescence, replicate 1": 62637, "raw ATP luminescence, replicate 2": 72463, "outcome": "inactive"}
{"target gene": "lola (longitudinals lacking)", "reagent": 12, "raw ATP luminescence, replicate 1": 35380, "raw ATP luminescence, replicate 2": 66737, "outcome": "inactive"}
